For 17 targets, NP40-soluble protein abundance results are on record in the supplement of paper PMC6411743.

Sequences of proteins named here, by UniProt entry; tags and fusion partners are left off. A change or cut given only in a name is not applied to a line headed by its entry.
UniProt Q86TI2: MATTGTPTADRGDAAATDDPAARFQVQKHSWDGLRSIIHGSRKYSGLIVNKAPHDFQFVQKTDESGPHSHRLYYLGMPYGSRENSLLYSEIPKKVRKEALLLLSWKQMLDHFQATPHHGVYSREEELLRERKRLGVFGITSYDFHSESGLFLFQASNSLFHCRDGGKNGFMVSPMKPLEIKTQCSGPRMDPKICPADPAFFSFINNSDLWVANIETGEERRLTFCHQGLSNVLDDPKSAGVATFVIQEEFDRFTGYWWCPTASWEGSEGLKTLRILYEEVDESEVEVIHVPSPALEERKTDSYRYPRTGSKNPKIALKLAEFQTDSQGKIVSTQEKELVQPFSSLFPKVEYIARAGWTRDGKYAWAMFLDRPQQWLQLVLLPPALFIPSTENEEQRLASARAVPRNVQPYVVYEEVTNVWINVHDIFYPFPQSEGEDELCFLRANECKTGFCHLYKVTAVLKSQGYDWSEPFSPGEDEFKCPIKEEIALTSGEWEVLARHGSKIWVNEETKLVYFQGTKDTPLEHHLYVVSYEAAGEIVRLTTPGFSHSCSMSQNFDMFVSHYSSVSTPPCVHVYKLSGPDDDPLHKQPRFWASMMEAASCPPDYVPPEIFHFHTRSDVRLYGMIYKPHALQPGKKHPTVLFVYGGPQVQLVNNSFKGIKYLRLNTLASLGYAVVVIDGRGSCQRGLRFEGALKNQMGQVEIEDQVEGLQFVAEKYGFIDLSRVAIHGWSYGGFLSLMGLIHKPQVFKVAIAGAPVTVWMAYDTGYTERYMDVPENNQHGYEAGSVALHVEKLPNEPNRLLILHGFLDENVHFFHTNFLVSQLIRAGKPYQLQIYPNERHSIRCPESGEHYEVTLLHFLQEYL
UniProt Q8N6G5: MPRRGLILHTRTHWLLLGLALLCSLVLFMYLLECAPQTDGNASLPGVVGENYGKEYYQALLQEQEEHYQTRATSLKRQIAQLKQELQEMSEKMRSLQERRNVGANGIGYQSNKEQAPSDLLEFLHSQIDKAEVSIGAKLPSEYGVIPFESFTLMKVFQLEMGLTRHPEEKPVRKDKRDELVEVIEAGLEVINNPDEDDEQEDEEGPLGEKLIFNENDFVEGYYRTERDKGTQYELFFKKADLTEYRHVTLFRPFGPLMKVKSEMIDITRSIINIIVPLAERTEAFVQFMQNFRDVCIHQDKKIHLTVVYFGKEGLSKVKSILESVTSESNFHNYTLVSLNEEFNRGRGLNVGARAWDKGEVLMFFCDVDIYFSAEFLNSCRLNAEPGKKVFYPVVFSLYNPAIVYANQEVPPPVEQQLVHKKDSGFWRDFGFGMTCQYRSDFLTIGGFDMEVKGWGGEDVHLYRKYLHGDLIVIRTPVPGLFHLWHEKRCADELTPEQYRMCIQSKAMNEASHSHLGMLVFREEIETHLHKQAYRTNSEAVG
UniProt Q8IYB1: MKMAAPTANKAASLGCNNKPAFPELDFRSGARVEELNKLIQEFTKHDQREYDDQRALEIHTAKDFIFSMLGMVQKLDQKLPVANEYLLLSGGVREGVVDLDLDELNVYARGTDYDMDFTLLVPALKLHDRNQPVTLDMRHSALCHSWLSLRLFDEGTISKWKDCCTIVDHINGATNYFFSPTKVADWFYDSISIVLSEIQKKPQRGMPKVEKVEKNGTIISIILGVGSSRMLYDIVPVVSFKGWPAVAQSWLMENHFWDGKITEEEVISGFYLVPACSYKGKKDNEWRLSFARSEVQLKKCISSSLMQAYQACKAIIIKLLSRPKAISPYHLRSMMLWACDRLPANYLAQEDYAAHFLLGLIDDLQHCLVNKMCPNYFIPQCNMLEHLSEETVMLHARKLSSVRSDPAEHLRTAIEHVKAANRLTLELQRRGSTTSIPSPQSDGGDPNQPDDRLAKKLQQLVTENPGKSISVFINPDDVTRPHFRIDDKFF
UniProt Q8IV50: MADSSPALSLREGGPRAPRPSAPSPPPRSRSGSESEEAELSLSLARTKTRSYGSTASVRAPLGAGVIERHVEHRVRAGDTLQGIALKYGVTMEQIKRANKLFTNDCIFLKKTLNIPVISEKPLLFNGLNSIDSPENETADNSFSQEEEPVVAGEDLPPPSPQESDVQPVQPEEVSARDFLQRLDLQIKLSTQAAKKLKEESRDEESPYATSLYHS
UniProt Q8NBN7: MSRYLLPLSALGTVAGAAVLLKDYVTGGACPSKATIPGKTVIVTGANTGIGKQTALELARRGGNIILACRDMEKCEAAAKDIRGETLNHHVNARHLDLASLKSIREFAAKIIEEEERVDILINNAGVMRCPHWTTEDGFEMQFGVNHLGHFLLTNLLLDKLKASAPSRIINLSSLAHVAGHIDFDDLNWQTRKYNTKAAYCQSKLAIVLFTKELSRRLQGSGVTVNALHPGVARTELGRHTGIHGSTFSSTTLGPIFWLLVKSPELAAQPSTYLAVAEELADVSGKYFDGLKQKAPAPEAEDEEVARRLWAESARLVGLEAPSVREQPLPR
UniProt Q8NBM4: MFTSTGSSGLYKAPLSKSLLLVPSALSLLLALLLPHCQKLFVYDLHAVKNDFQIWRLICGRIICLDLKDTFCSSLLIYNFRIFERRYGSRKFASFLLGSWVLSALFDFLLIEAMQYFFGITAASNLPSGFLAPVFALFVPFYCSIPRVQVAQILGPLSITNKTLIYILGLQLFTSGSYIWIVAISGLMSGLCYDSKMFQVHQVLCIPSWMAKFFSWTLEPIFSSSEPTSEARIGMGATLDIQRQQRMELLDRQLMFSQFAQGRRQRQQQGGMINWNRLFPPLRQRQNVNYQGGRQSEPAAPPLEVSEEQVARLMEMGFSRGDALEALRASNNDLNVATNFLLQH
UniProt Q8IYA6: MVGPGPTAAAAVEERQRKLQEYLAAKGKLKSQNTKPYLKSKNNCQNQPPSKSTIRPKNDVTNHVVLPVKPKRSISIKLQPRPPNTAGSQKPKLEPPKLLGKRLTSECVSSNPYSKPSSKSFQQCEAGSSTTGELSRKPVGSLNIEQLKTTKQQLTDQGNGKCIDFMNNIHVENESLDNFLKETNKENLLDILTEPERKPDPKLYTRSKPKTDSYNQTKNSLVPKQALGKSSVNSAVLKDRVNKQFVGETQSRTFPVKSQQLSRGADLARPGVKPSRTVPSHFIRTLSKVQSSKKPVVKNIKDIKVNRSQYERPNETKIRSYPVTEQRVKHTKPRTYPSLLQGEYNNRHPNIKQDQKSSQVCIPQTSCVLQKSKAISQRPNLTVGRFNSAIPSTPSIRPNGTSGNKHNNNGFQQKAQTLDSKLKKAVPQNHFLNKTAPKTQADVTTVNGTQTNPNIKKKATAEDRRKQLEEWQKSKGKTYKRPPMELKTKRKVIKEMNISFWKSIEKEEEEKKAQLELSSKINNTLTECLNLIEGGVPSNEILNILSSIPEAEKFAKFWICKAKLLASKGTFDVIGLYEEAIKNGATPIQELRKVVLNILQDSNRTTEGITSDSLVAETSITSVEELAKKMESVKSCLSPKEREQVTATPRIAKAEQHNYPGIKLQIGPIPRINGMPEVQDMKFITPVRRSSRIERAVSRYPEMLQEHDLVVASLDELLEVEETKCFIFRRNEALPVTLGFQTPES
UniProt Q8N9M1: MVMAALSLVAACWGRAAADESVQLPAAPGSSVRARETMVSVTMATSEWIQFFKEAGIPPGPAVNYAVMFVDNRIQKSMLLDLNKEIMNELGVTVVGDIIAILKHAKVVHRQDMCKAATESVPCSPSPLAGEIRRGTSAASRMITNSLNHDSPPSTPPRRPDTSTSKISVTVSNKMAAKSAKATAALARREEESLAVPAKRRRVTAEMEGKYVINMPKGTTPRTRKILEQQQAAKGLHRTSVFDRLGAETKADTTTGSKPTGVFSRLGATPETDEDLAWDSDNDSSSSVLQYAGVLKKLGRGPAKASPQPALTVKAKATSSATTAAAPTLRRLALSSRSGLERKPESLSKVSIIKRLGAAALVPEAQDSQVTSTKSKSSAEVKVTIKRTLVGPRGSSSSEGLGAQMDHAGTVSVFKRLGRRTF
UniProt Q86TI0: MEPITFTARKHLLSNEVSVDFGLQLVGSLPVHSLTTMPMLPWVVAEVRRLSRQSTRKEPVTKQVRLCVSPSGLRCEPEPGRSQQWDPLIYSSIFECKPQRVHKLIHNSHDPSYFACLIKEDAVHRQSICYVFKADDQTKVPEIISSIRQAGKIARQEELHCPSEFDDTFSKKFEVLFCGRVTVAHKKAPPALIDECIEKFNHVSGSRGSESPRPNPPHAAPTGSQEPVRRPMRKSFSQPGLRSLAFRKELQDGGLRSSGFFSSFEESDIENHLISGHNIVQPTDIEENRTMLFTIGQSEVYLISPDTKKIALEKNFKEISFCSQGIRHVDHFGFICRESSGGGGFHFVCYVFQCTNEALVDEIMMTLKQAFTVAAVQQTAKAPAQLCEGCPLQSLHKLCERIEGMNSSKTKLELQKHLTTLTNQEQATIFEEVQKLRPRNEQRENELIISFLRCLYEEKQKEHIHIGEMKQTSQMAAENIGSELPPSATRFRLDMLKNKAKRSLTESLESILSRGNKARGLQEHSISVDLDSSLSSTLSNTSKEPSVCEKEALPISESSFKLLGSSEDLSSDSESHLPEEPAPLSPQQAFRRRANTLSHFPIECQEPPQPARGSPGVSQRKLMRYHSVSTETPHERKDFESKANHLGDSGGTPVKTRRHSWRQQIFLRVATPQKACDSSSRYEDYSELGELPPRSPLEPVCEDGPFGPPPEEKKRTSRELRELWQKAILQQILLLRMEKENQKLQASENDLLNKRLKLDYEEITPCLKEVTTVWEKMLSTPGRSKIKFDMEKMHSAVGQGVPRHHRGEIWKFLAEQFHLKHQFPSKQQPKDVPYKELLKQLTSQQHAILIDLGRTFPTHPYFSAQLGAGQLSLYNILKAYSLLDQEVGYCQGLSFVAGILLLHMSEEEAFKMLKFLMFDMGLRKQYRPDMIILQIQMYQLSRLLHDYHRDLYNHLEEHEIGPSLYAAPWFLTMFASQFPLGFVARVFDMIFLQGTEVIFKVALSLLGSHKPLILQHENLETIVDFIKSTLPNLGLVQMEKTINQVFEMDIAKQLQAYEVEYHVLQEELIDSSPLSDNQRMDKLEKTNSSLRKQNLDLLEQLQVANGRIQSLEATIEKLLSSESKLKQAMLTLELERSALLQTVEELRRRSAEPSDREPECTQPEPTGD
UniProt Q8IYQ7: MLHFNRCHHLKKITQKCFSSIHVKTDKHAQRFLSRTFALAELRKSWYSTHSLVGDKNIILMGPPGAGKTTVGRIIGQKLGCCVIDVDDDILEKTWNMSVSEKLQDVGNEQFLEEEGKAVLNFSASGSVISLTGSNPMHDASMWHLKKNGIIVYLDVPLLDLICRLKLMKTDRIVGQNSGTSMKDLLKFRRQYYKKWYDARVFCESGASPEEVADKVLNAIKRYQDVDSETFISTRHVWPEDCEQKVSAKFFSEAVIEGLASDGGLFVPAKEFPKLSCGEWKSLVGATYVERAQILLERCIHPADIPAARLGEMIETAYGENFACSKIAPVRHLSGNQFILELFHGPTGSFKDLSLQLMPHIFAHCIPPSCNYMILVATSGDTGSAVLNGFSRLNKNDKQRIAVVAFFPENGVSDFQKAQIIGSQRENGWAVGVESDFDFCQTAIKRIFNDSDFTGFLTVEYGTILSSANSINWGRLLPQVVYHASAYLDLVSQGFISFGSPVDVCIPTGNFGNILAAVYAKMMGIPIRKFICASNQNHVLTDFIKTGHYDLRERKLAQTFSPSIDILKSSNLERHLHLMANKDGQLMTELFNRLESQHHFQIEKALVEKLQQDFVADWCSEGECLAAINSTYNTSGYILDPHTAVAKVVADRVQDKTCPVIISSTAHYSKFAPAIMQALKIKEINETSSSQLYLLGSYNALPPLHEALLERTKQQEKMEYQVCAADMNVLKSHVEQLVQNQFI
UniProt Q96JN0: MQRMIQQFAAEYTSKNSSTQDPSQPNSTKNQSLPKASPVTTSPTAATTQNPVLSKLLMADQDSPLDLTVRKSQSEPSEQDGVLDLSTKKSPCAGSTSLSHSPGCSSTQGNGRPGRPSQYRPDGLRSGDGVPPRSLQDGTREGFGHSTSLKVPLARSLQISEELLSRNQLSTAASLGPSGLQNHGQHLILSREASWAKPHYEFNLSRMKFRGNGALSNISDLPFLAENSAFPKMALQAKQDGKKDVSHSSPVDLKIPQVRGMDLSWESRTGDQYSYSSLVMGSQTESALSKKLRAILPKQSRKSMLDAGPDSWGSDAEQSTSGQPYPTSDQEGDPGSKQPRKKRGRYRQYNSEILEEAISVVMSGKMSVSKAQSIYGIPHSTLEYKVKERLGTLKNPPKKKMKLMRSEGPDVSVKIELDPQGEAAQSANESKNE

Compound in this test: Nc1ncnc2c1ncn2[C@@H]1O[C@H](COP(=O)(O)OP(=O)(O)NP(=O)(O)O)[C@@H](O)[C@H]1O [adenylyl imidodiphosphate]
Nature of the test: NP40-soluble protein abundance relative to vehicle (solubility fold change) (ratio); higher = more soluble protein in presence of AMP-PNP. A digest of the protocol:
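Crude Jurkat lysate, prepared by Dounce homogenisation, was exposed to eight concentrations from 0.1 to 10 mM for 10 min at room temperature and then 3 min at 37 °C. Solubilisation used 0.8% NP40 with benzonase for 60 min at 4 °C, followed by ultracentrifugation and TMT labelling of the supernatant for LC-MS/MS. After vsn normalisation of intensities, each value is the fold change against the detergent-processed vehicle within each replicate, across three independent experiments.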

± gives the standard deviation of the averaged measurements. The list shows a part of the results, in another mix than the full data.

As for “UniProt Q8IXQ6-2|Q8IXQ6-3|G5E9U8 and related entries”, the NP40-soluble protein abundance (concentration: 1mM) is 0.9923 ± 0.0056; the NP40-soluble protein abundance (concentration: 2mM) was 0.9832 ± 0.0065; the NP40-soluble protein abundance (concentration: 4mM) is 1.03 ± 0.018; the NP40-soluble protein abundance (concentration: 6mM) was 1 ± 0.049; the NP40-soluble protein abundance (concentration: 8mM) amounted to 1.03 ± 0.04; the NP40-soluble protein abundance (concentration: 10mM) came to 0.999 ± 0.069.

In the case of UniProt Q86TI2 and related entries, the NP40-soluble protein abundance amounted to 0.978 ± 0.016 (concentration: 1mM); 0.875 ± 0.1 (concentration: 2mM); 0.945 ± 0.019 (concentration: 4mM); 0.912 ± 0.039 (concentration: 6mM); 0.943 ± 0.046 (concentration: 8mM); 0.9 ± 0.016 (concentration: 10mM).

For the target UniProt Q8N6G5 and related entries, the NP40-soluble protein abundance reads like this: (concentration: 1mM) 0.923 ± 0.052; (concentration: 2mM) 0.901 ± 0.069; (concentration: 4mM) 0.896 ± 0.057; (concentration: 6mM) 0.909 ± 0.044; (concentration: 8mM) 0.872 ± 0.047; (concentration: 10mM) 0.926 ± 0.08.

UniProt Q8IYB1: the NP40-soluble protein abundance by setting is: (concentration: 1mM) 0.999 ± 0.037; (concentration: 2mM) 0.966 ± 0.051; (concentration: 4mM) 0.971 ± 0.042; (concentration: 6mM) 0.9809 ± 0.0042; (concentration: 8mM) 0.98 ± 0.022; (concentration: 10mM) 0.965 ± 0.018.

As to UniProt Q8IWI9 and related entries, the NP40-soluble protein abundance is, setting by setting: (concentration: 1mM) 1.02 ± 0.023; (concentration: 2mM) 1.01 ± 0.021; (concentration: 4mM) 1.01 ± 0.047; (concentration: 6mM) 0.953 ± 0.014; (concentration: 8mM) 0.924 ± 0.029; (concentration: 10mM) 0.944 ± 0.046.

In the case of ZBTB33 (UniProt Q86T24), the NP40-soluble protein abundance (concentration: 1mM) is 0.997 ± 0.06; the NP40-soluble protein abundance (concentration: 2mM) was 1 ± 0.028; the NP40-soluble protein abundance (concentration: 4mM) was 0.995 ± 0.046; the NP40-soluble protein abundance (concentration: 6mM) amounted to 0.997 ± 0.017; the NP40-soluble protein abundance (concentration: 8mM) is 0.962 ± 0.048; the NP40-soluble protein abundance (concentration: 10mM) is 1.01 ± 0.036.

Regarding UniProt Q8NB15-2|Q8NB15, the NP40-soluble protein abundance turned out to be 1.01 ± 0.029 (concentration: 1mM); 1.02 ± 0.033 (concentration: 2mM); 1.01 ± 0.037 (concentration: 4mM); 0.992 ± 0.012 (concentration: 6mM); 1 ± 0.035 (concentration: 8mM); 1.01 ± 0.035 (concentration: 10mM).

As for LYSMD2 (UniProt Q8IV50), the NP40-soluble protein abundance (concentration: 1mM) was 0.964 ± 0.068; the NP40-soluble protein abundance (concentration: 2mM) was 0.903 ± 0.025; the NP40-soluble protein abundance (concentration: 4mM) worked out at 0.943 ± 0.051; the NP40-soluble protein abundance (concentration: 6mM) is 0.931 ± 0.053; the NP40-soluble protein abundance (concentration: 8mM) was found to be 0.97 ± 0.062; the NP40-soluble protein abundance (concentration: 10mM) stood at 0.902 ± 0.045.

For RDH13 (UniProt Q8NBN7), the NP40-soluble protein abundance came to 1.03 ± 0.023 (concentration: 1mM); 1.06 ± 0.049 (concentration: 2mM); 1.03 ± 0.03 (concentration: 4mM); 1.01 ± 0.011 (concentration: 6mM); 0.987 ± 0.014 (concentration: 8mM); 0.991 ± 0.025 (concentration: 10mM).

On to UniProt Q8NBM4 and related entries, for which the NP40-soluble protein abundance came out at 0.95 ± 0.026 (concentration: 1mM); 0.948 ± 0.017 (concentration: 2mM); 0.934 ± 0.014 (concentration: 4mM); 0.9469 ± 0.0045 (concentration: 6mM); 0.944 ± 0.027 (concentration: 8mM); 0.952 ± 0.039 (concentration: 10mM).

For the target CKAP2L (UniProt Q8IYA6), the NP40-soluble protein abundance is, setting by setting: (concentration: 1mM) 1 ± 0.011; (concentration: 2mM) 1.01 ± 0.023; (concentration: 4mM) 1.03 ± 0.02; (concentration: 6mM) 1.02 ± 0.011; (concentration: 8mM) 1.06 ± 0.024; (concentration: 10mM) 1.11 ± 0.063.

For KRI1 (UniProt Q8N9T8), the NP40-soluble protein abundance reads like this: (concentration: 1mM) 1.04 ± 0.013; (concentration: 2mM) 1.09 ± 0.053; (concentration: 4mM) 1.038 ± 0.0084; (concentration: 6mM) 1.02 ± 0.026; (concentration: 8mM) 1.021 ± 0.0046; (concentration: 10mM) 1.04 ± 0.014.

Consider UniProt Q8N9M1 and related entries, for which the NP40-soluble protein abundance (concentration: 1mM) was 0.938 ± 0.057; the NP40-soluble protein abundance (concentration: 2mM) stood at 0.968 ± 0.061; the NP40-soluble protein abundance (concentration: 4mM) was determined as 0.929 ± 0.099; the NP40-soluble protein abundance (concentration: 6mM) was 0.974 ± 0.099; the NP40-soluble protein abundance (concentration: 8mM) was found to be 0.97 ± 0.066; the NP40-soluble protein abundance (concentration: 10mM) was 0.998 ± 0.12.

For UniProt Q86TI0 and related entries, the NP40-soluble protein abundance runs as follows: (concentration: 1mM) 1.06 ± 0.022; (concentration: 2mM) 1.04 ± 0.032; (concentration: 4mM) 1.05 ± 0.056; (concentration: 6mM) 0.989 ± 0.029; (concentration: 8mM) 1.01 ± 0.076; (concentration: 10mM) 1 ± 0.062.

For MRPL50 (UniProt Q8N5N7), the NP40-soluble protein abundance reads like this: (concentration: 1mM) 1 ± 0.1; (concentration: 2mM) 1.02 ± 0.073; (concentration: 4mM) 0.982 ± 0.1; (concentration: 6mM) 0.945 ± 0.12; (concentration: 8mM) 0.955 ± 0.088; (concentration: 10mM) 0.939 ± 0.11.

For the target THNSL1 (UniProt Q8IYQ7), the NP40-soluble protein abundance runs as follows: (concentration: 1mM) 0.995 ± 0.068; (concentration: 2mM) 0.965 ± 0.08; (concentration: 4mM) 1.01 ± 0.071; (concentration: 6mM) 0.96 ± 0.031; (concentration: 8mM) 0.989 ± 0.048; (concentration: 10mM) 0.958 ± 0.048.

Q8N655 (UniProt Q96JN0): the NP40-soluble protein abundance came to 1.07 ± 0.013 (concentration: 1mM); 1.08 ± 0.024 (concentration: 2mM); 1.12 ± 0.04 (concentration: 4mM); 1.13 ± 0.026 (concentration: 6mM); 1.112 ± 0.0082 (concentration: 8mM); 1.1104 ± 0.0011 (concentration: 10mM).
